Test results taken from article PMC4958305.

Chains of the proteins cited; added tags and fusions are not shown.
UniProt O14356: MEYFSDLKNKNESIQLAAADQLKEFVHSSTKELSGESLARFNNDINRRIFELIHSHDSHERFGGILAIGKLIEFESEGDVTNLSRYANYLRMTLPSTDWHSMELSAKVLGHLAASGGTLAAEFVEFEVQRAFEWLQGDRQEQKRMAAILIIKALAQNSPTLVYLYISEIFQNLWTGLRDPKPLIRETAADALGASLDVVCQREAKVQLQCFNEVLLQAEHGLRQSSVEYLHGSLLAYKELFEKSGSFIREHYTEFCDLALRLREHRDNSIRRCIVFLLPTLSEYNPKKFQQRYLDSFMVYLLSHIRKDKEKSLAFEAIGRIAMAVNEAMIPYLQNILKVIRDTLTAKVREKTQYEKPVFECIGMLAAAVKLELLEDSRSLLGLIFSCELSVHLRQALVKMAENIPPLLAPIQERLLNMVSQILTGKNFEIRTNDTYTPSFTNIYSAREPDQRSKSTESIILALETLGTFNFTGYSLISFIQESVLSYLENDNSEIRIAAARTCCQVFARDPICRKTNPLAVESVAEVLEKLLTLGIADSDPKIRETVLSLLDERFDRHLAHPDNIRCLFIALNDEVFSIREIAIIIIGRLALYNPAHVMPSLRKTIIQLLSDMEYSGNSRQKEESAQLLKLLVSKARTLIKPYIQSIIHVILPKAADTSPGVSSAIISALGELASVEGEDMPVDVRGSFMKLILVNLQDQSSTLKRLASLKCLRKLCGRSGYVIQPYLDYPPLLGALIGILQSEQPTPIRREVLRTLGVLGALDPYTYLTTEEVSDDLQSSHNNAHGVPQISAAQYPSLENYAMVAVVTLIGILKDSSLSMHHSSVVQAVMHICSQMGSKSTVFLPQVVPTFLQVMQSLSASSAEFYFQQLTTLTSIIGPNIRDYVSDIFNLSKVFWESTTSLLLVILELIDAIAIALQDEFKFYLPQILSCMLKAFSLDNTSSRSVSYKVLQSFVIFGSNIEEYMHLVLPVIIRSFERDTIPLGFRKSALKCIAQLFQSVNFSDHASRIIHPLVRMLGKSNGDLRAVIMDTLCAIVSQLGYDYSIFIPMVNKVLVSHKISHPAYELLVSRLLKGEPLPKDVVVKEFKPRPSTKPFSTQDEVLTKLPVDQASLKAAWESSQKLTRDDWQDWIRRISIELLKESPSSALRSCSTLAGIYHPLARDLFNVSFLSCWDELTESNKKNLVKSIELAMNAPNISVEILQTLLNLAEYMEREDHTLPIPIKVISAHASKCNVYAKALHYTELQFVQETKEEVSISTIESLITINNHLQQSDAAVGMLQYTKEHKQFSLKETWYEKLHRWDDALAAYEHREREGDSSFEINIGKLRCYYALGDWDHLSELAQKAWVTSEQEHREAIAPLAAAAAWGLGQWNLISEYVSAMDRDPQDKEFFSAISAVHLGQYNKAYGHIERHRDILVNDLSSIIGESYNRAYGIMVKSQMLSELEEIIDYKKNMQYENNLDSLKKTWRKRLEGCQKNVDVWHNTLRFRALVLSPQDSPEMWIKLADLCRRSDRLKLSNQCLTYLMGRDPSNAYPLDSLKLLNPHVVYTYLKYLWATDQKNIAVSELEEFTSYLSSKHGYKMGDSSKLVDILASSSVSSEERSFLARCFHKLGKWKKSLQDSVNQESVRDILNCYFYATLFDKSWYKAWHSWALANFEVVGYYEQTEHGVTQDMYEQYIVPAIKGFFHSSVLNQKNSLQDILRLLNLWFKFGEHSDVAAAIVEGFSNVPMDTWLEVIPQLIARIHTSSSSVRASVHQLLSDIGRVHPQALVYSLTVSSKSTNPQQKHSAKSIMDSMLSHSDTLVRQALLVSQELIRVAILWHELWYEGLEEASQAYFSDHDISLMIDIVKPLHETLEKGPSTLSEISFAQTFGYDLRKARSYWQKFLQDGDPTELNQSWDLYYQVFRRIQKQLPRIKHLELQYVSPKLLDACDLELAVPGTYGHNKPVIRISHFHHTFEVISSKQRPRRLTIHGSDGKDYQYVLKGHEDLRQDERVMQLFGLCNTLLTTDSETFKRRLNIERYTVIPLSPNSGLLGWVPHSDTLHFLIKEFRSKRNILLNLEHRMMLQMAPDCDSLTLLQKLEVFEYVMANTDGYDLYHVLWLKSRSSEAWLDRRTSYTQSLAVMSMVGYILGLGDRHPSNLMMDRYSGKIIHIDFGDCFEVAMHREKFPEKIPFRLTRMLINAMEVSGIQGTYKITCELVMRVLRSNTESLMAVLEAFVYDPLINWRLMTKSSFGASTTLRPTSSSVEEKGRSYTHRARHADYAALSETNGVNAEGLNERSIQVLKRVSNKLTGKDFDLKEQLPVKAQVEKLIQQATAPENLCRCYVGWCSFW
UniProt Q9P7J8: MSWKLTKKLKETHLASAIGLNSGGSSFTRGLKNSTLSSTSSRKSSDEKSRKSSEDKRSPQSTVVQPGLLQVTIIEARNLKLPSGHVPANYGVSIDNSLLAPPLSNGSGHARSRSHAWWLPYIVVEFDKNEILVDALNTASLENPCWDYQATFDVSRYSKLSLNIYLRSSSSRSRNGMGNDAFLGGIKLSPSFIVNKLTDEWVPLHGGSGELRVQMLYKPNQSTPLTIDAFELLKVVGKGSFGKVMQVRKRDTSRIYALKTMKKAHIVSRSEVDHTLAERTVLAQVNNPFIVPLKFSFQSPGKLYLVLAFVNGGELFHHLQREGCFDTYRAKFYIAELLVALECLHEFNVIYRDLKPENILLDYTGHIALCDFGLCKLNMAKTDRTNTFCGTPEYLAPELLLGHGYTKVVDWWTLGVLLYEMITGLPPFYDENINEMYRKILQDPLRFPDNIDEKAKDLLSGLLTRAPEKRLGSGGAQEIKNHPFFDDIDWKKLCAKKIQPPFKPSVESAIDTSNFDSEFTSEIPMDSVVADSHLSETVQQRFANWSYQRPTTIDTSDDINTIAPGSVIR
UniProt O74805: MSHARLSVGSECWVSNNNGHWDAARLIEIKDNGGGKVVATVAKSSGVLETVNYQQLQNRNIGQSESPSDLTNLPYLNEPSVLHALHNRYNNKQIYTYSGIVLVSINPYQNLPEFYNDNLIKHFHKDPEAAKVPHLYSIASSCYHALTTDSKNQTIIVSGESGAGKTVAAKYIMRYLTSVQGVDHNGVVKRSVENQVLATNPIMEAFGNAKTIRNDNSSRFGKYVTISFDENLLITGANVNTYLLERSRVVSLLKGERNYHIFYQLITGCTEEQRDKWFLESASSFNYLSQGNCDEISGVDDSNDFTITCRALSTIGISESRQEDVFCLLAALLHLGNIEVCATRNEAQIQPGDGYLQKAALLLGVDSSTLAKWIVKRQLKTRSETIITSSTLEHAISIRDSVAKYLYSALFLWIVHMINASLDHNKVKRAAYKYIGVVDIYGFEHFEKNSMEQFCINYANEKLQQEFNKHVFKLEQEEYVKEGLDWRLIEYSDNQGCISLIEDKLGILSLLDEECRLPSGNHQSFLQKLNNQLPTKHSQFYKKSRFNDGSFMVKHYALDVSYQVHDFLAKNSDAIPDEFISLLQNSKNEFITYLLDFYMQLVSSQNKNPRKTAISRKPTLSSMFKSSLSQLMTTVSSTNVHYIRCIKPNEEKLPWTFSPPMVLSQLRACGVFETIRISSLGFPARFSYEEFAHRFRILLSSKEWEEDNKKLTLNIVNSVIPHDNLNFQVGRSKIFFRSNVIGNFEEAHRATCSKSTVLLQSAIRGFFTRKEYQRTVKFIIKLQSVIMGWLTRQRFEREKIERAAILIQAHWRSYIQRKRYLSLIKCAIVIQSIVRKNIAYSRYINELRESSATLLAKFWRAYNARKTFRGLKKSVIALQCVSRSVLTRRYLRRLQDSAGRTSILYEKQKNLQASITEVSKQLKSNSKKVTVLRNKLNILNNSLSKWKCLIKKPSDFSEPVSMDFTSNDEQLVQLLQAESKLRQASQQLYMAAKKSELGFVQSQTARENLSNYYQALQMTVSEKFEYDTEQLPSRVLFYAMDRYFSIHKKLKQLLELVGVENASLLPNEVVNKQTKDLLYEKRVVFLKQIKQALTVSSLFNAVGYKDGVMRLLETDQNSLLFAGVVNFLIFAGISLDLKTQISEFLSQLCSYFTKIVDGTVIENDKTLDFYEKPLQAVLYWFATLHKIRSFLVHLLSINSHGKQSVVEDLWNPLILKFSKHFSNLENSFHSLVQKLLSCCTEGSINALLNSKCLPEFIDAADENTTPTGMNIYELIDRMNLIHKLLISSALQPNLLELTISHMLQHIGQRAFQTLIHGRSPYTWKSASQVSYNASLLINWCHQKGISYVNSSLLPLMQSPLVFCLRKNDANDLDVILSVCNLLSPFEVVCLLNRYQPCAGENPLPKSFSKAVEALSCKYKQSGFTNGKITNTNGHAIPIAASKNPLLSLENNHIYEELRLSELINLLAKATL
UniProt Q10059: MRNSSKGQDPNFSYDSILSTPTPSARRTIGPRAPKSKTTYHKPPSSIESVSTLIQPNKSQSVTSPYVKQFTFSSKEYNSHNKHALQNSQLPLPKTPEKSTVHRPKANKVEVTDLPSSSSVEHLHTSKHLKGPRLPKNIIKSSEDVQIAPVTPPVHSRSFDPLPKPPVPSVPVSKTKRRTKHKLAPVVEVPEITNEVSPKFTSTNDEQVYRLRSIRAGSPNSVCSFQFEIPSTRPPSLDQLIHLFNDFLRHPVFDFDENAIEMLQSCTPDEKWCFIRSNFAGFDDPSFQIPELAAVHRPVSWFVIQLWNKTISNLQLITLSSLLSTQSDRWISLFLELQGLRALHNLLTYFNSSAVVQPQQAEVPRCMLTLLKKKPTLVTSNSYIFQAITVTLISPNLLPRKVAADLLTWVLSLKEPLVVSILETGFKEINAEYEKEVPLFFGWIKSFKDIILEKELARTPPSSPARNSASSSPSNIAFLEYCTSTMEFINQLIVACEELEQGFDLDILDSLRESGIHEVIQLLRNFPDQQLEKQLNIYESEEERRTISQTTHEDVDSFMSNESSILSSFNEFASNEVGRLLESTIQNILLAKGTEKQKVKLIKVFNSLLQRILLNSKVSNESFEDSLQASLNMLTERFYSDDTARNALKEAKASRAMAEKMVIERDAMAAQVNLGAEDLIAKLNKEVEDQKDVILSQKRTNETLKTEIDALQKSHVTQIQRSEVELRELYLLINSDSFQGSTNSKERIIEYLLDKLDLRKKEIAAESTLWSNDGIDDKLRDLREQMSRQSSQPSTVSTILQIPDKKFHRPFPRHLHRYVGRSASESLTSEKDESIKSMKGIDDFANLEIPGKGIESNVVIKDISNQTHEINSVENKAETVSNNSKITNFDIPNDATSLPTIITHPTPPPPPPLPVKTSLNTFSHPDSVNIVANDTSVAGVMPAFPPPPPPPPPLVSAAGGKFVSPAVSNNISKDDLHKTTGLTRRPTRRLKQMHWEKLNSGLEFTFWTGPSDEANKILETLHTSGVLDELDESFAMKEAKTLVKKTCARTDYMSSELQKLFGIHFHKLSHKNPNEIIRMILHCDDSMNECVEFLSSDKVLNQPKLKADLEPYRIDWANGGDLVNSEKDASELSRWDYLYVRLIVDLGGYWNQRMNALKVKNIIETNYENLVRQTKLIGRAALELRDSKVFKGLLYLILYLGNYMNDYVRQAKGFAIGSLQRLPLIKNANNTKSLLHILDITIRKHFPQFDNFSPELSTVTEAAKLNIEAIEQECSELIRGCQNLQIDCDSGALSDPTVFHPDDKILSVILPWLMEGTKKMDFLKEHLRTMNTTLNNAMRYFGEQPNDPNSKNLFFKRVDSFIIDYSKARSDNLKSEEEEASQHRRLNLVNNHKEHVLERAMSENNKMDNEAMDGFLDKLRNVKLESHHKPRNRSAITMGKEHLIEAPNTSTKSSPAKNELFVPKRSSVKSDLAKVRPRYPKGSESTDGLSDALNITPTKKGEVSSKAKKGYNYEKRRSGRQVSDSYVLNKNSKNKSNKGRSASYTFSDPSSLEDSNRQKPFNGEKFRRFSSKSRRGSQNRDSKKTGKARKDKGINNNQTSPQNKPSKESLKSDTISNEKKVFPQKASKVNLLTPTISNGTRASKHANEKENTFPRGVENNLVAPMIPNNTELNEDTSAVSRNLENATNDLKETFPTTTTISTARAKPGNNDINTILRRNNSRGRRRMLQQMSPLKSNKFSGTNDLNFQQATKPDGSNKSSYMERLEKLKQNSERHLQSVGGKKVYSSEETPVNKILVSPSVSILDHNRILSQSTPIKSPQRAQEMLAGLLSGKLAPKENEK
UniProt O74184: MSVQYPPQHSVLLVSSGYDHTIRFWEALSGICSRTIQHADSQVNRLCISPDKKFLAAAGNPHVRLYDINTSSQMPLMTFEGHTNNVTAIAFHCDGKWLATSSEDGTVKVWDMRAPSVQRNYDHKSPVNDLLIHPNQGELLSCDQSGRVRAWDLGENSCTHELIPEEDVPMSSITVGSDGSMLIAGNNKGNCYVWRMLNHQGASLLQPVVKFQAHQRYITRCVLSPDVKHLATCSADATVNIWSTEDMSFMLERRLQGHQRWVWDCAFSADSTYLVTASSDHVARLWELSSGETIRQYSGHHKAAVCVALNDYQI

Molecular target: Tor1 (S. pombe (endogenous in S. pombe cells)) (UniProt O14356)
Assay: affinity purification with mass spectrometry; anti-Tor1 antibodies on protein G Dynabeads, cleared extract of wild-type S. pombe (JP350), 60 min at 4°C, washes with 200 mM NaCl; control without antibody; three independent experiments

Row | Molecule | binding
1 | Gad8 (from UniProt Q9P7J8 1-569) | binds
2 | Myo51 (from UniProt O74805 1-1471) | binds
3 | Myp2 (from UniProt O14157 1-2104) | binds
4 | Ppk32 (protein, UniProt Q9P7X5 1-749) MLANALRLVSNSKKIKYDYDIQKENSVQVGPWTVYSASKKGTNEEVSVFTFDKKNLSTLLKRGSIDSNLKTNYVLELLRKDVSSLSRLRHPSLLQVVEPLEESKSSMSFVTRRIQSMLQDFIKSSNGGFSNYGSSANGKSSGNALEEVEIQKGLLQIIDGLVFLHGSAKVIHYNIRPSSVVVDAKGDWKLCGFSFSQSVESARYEFNDYDFGIPSSLQQSMDFLAPEYITHEIAGPESDVFSFGCLIYSIFNKNQSIINANNHLLSYEKEITSLNSPTFIESKNLPSENLKSLLKETLAVDPKQRASMFELERSPYFTGSAIAALRFLESFPEKLPSEKVSFMESLSKNLTTFPYRIQSQKILPTLLDHLNDQKLVPSLLPCIFEISKGLDSSIFSSKVFTAIFPIISAANSYPERVPLCIFQYMDCLKSKLPSGEFLSKIVPFIYGCFENSSLNVQTTSIQILGTLLDIIDVTTVKSSICPKLYHSFSVTNQLDVKVAILDTFNVFINQKFLDSFAIVDKLLPVLEKVKTREPTVVMGMVTVYISAGAIIPEETVHEQVIPRLWILSVSPSLSLEQYNKCMREIRSLSDAVQKSHAKKLQSKPSSVVPNRITTDPFSSQTKEATSKPSSISPNKATTNIFTSQASLSSQGVARETSSASSYRSYSQRASTPAVTAKSSFHYATPTSGLSNFNSVTPSSSASLYPPLIPSEARTPSVQPANRRVTTPVVNQNTVTSDSSNDLGGWKSLL | binds
5 | RICTOR^Ste20 (protein, UniProt Q09743 1-1309) MKPVRRGQTDTALDISSHAKTNGDFIKKMNTTDSKRLKLLEDLKGKLEVECKIRDGAETLLQVFDTNFKKETKERKEMLKKKCTDELESSKKKIEELVSSIESFQGENGEAKTGSTSLTRSASATVSRKSSLQEKYSTRFSYKAGCSDSCSVTVSGTGELIGPTRNAHSNLTPTVIQRIDFENVNEKNNSSSEDTQPNGKRPSSLQSNFSQFPLNPWLDNIYKACLEGSMKDVIDSSNNLCEYLHEHSDPAYAKNFSLITPTILSMLELNVSEVTASVYRLLRHLFLDATAFSCCQMLNLPWILSKSLLSGTDAYQIEREQAFRLIRTLYFLSSTEGHEDYLSGITRTIISICEHVSDVSRGIAVETLIELMIIRPKILFKANGLRVLMISLIDGSISENLAASAALALVYLLDDPESACYVNLPYDIGILLSPFTSSSSRDTFNSSEEQSEQAAKAMKSSAKVASVLLNSWSGLLALSTNDFQALRSIVDTLRVPSFAPRSDVIDLFFLIFQVEYSSWSESFLAGKRLTVVKNQAVSNDDNINMVNIPDGSNKKYMSLRQHFTAVLLFIFLELGLVESIVCMIRASDDPSASRKATYLLGEVLRLSDELLPIHLGAKIQSLPSLFNMASQFTAEDRFVATSVLQSIESLNRVKFHSATQPFSQTTSLLFKEQKTDGSFRGQRQVEHVKLKMGMQIDDSHFRSMLAETNVLATKNYQKWRWDTLVQIMEGPLLSPKRIDETLRTTKFMRRLLAFYKPFSNRFSSIQNTKPNQKFIKVGCLVFRTLLANPEGVKYLSESKVIKQIAESLSQIDGYSEQVSEPIFSNSRLQKTLTHGYFPMLKVLSSQKEGHAIMERWRIFTTLYHLTELRNRDDLIIIFLTNLDYRLEGHTRIIFSKALNTGQQAVRLTATKHLAALINSESANDNLNHWAISLLIFQLYDPCLEVCKTAVKVLNEVCARNENLLAQVVQLQPSLAHLGEIGSPLLLRFLATTVGFHYLSEINFIEHELDNWYHHRNIDYVDLLEQNFFLSFVSNLKIIDKKNNEPDENILPLHFYGELVKSPQGCEVLESSGHFESFMGTLVEFYDKPLGNEAIRQLKSALWAIGNIGKTDQGITFLINHDTIPLIVKYAENSLIPTVRGTAYFVLGLISRTSKGVEILESLHWYSLMSLMGTSQGICIPRHAGQVLSTPRRNVEFVNERVPTPEFSSLLSSLTNSEREVIRLVSNLSNHVLTNESARQLTKIRSKNAKVFSSKRLVKACMTILGKFHYRVQIQQFVFELFPYSVLLSSSTSQDLNESPSRPNNLSISA | binds

Results, then the molecule that gave them:

Row | binding | Molecule
6 | binds | Cdc12 (from UniProt Q10059 1-1841)
7 | binds | Pop3 (from UniProt O74184 1-314)
8 | binds | Sin1 (protein, UniProt Q9P7Y9 1-665) MELTREKVLLLTFLRMQYSHILPDSIENRVISTEAPEWELDKSLQDLLIHDYDYSKTSFSSSPPIVANDTVSNVRKPSDTKQVNGAGGQVNHSRAEDSDYATSDLSESSDVGDDDNSCIFSFSKVPMQKDVASIKEEERLDPKISTLNNIDAIANLKLTNMVESSQAVNLTSSKQSSINQQSSVSTDYDDLRSISEESFHLSQGEIPLTFPMNSSLTDTEADAVVAVDALFPGKQRGTHNTVNKARSVSNAKAPTSALRALLEHKENSSQNGPLAENFATFSGHAESNALRLNIYFPSSESPSKPLFVELRKNVLVSEAIGYILLQYVNQQLVPPIEDEAQNPNYWNLRIVEDDGELDEDFPALDRVGPLSKFGFDAFALVKATPAQIKENQAAYPFKSKHPTSIPEANNKTHIRHTSSTSSQSQKQAQDVKDTLNTSHVVQVRLPPYGDNARFCNIEISKTTRLAMVLNQVCWMKQLERFKYTLRVAGSDTVLPLDKTFSSLDGNPTLELVKKKVRDKKGSTQQLPTSSPQNSVYGSIKKDAQSSTYNATDIMSSNTYQEFLVWKRQPVSFMGRHERLLAIDGEYVHIMPSESKNIFETPKTSSIHAGSIILCKQSKKSPCNFKMIVSKNRETKRYDFEVLSALEAAIIVSRIRALMNTVKKIN

Results are given in words; binding and its absence hold for the method and conditions named. In cells and extracts the contact can be indirect. These calls come from enrichment with a bait or labelling near it, and not all partners need be listed.
